Sequences of proteins named here, by UniProt entry; tags and fusion partners are left off. Residues count along the entry.
UniProt Q9UPY3, 605-1843: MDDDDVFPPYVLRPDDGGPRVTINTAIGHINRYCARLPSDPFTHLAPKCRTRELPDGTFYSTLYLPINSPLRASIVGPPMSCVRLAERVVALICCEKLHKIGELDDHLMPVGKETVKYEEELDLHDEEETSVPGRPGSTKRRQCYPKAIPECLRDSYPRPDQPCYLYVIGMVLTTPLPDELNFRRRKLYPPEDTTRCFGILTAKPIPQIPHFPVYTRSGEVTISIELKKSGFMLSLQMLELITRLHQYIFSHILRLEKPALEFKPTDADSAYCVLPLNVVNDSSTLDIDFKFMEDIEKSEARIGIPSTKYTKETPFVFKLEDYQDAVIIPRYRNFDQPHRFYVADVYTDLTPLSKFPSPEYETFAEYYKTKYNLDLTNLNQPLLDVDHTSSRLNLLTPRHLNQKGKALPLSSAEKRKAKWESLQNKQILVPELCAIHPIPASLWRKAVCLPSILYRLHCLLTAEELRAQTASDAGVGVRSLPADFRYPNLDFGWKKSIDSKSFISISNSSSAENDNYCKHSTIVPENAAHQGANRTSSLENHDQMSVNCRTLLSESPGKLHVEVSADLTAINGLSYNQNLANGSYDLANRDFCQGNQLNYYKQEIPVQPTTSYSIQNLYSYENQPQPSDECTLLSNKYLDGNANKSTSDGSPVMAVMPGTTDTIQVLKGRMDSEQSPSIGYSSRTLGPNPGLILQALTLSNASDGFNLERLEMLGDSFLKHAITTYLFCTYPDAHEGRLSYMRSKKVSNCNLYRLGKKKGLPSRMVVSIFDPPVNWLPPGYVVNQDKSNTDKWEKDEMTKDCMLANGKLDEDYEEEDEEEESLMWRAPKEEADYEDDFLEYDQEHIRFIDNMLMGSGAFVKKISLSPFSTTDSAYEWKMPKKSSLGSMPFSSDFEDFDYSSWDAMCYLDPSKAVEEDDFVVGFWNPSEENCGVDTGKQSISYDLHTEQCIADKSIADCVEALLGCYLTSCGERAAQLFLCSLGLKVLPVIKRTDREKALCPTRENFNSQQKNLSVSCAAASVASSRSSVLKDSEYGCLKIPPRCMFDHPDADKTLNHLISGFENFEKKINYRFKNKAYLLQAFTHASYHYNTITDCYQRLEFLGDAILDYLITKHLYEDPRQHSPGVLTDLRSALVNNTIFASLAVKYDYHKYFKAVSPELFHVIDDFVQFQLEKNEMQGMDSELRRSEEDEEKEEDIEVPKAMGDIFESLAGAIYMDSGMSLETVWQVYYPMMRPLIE
UniProt Q9UPY3, whole entry K70A: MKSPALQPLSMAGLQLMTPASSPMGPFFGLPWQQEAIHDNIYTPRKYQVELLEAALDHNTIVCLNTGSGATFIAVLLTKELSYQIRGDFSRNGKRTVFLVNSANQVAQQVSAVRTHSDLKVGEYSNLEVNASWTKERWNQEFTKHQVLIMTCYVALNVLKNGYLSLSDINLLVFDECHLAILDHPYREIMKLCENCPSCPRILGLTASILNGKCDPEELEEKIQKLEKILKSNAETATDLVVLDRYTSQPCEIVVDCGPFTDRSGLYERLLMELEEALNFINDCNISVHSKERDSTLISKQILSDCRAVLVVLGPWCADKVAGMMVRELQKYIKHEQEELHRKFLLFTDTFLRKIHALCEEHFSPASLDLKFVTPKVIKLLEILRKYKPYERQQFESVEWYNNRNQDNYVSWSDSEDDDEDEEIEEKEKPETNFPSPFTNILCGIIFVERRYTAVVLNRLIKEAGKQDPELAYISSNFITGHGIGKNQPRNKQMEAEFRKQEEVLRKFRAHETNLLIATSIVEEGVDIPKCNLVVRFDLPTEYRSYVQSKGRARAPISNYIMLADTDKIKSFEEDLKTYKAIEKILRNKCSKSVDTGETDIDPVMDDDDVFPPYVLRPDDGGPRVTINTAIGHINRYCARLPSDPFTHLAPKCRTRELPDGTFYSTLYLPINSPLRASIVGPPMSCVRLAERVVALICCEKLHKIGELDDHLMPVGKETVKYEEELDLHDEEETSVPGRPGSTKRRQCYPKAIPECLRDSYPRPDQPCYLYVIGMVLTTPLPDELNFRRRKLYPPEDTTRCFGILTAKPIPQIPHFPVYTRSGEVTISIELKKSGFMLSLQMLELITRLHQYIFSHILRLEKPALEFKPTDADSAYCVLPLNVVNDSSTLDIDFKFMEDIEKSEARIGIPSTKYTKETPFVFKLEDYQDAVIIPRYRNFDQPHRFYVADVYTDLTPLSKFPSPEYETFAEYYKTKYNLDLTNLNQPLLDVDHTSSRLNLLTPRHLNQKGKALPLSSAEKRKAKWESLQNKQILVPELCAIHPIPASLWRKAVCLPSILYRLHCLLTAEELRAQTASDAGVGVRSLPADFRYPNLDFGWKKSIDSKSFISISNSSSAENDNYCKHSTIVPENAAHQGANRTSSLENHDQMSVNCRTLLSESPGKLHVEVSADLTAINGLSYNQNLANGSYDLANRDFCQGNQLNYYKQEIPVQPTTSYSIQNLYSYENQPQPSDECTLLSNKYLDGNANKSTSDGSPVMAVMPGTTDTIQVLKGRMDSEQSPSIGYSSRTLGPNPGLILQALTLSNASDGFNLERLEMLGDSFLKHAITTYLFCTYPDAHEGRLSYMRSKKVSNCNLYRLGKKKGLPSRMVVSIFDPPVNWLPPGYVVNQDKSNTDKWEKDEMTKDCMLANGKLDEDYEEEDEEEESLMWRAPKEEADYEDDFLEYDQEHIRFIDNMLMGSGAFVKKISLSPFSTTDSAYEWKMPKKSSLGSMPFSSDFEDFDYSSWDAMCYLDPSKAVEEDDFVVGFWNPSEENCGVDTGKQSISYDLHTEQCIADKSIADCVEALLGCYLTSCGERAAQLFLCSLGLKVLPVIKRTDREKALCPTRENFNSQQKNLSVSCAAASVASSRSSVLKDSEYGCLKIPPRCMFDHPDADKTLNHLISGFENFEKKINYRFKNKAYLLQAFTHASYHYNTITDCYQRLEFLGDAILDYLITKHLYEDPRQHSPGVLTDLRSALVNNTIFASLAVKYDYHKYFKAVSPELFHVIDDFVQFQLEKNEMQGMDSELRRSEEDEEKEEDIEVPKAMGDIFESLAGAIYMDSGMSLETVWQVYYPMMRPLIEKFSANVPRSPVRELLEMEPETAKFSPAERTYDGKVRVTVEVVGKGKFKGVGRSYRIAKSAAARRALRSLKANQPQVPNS
UniProt Q9UPY3, 1-1843, stated change not applied: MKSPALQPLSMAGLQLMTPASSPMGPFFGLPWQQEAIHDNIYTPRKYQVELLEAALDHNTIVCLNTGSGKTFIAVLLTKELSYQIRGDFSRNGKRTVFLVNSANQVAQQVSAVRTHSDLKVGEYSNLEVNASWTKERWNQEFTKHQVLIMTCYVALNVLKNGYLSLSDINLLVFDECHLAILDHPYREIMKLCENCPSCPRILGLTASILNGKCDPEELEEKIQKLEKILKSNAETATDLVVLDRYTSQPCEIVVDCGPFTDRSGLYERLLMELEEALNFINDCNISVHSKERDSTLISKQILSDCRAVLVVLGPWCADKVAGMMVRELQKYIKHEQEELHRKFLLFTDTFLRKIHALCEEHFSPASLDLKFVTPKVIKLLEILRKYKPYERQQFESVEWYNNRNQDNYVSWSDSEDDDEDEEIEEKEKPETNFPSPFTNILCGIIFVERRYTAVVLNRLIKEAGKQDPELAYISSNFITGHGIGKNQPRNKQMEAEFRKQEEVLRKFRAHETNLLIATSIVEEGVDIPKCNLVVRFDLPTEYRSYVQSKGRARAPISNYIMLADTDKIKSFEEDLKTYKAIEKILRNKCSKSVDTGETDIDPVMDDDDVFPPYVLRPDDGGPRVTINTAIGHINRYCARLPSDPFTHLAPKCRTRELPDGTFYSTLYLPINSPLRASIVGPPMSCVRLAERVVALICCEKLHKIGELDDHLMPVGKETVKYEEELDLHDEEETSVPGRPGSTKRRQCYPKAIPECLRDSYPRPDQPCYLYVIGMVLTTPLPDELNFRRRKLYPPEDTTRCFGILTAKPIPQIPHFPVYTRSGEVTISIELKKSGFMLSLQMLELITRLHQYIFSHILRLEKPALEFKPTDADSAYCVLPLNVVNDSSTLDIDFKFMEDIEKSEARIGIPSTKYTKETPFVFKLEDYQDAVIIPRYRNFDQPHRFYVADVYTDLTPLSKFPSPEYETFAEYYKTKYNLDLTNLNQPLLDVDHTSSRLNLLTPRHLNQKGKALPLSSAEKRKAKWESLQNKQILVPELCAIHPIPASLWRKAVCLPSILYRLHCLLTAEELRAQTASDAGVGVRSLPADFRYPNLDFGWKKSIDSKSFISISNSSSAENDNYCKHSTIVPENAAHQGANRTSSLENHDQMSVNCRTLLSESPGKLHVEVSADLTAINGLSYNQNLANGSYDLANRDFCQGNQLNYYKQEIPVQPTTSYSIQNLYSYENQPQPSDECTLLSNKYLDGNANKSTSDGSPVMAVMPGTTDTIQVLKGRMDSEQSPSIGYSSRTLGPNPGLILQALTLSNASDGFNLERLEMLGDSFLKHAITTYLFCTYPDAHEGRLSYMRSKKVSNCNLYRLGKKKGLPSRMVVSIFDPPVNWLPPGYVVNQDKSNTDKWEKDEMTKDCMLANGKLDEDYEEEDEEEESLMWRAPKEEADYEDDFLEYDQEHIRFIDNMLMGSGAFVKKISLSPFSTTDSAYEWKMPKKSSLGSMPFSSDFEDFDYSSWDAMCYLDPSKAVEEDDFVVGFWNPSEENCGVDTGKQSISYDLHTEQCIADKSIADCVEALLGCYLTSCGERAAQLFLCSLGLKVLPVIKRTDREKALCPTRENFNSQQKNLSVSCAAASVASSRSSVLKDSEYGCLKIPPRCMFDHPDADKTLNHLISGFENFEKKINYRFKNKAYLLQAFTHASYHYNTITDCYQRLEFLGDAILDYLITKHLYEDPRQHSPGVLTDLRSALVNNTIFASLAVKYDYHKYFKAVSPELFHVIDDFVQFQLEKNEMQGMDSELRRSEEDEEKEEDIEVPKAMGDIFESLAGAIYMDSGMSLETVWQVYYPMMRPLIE
UniProt Q9UPY3, 605-1922, stated change not applied: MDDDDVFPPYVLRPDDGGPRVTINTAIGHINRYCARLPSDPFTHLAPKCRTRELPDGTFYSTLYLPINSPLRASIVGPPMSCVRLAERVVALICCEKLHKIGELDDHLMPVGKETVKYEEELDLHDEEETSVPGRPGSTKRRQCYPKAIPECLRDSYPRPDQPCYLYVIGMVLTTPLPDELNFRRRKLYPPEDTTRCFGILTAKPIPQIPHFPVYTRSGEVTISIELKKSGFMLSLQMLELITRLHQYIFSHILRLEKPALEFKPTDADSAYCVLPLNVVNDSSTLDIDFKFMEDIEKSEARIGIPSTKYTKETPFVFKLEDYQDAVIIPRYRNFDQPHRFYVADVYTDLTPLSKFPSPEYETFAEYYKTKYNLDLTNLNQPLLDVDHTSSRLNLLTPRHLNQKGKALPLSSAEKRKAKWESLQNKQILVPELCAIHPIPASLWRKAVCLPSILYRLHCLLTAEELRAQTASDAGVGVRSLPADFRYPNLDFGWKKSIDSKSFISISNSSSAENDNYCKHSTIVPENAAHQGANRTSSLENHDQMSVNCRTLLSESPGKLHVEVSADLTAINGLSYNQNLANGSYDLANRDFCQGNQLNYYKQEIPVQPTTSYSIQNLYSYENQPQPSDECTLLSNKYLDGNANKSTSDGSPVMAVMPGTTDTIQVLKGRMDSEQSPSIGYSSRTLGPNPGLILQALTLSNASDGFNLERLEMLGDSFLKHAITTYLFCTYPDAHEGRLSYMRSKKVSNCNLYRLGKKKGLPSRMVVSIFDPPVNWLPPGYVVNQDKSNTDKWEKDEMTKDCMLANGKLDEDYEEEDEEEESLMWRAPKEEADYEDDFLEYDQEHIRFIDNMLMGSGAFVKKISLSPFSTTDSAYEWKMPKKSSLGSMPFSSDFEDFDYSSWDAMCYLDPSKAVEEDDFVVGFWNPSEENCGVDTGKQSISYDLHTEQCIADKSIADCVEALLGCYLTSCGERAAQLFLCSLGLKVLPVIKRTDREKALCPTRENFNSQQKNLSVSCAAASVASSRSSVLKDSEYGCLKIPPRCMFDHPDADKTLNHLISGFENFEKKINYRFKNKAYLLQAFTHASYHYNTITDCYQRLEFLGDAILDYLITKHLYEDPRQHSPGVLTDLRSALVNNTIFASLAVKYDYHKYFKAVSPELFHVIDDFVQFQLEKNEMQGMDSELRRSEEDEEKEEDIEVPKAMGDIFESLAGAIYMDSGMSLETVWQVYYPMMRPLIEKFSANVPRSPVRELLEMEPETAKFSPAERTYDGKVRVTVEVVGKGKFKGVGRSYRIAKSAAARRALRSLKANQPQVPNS

In patent US8440430, “Modified dicer polypeptide and methods of use thereof” (The Regents of the University of California):

How the values were obtained:
[1] = target: ΔDUF human Dicer (lacks DUF283) del630-709 (Homo sapiens) (UniProt Q9UPY3); test: enzyme reaction in vitro; conditions: single-turnover cleavage rate significantly reduced vs wild-type; 1.5 mM MgCl2; purified recombinant protein; label: 5'-32P on one strand
[2] = target: 2DD human Dicer (lacks DExD/H-box domain and dsRBD) del1-604, del1844-1922 (Homo sapiens) (UniProt Q9UPY3); test: enzyme reaction in vitro; conditions: active in dicing assay, 60 nM protein; 1.5 mM MgCl2; purified recombinant protein; label: 5'-32P on one strand
[3] = system: human Dicer-TRBP complex (Homo sapiens); test: enzyme reaction in vitro; conditions: multiple turnover, 5 nM complex, 100 nM dsRNA; cleavage rate increased vs full-length Dicer alone, less than ΔDEAD; purified recombinant protein; label: 5'-32P on one strand
[4] = target: hWalker human Dicer (K70A) (Homo sapiens) (UniProt Q9UPY3); test: enzyme reaction in vitro; conditions: single-turnover cleavage significantly faster than wild-type; 1.5 mM MgCl2; purified recombinant protein; label: 5'-32P on one strand
[5] = target: ΔdsRBD human Dicer del1844-1922 (Homo sapiens) (UniProt Q9UPY3); test: enzyme reaction in vitro; conditions: single-turnover cleavage rate significantly reduced vs wild-type; 1.5 mM MgCl2; purified recombinant protein; label: 5'-32P on one strand
[6] = target: 2DD human Dicer (lacks DExD/H-box domain and dsRBD) del1-604, del1844-1922 (Homo sapiens) (UniProt Q9UPY3); test: filter binding; conditions: 5 mM EDTA, purified recombinant protein
[7] = target: ΔDEAD human Dicer (lacks DExD/H-box domain, aa 1-604 deleted) (Homo sapiens) (UniProt Q9UPY3); test: enzyme reaction in vitro; conditions: single turnover; no pronounced stimulation vs wild-type; 1.5 mM MgCl2; purified recombinant protein; label: 5'-32P
[8] = target: wild-type human Dicer (flhDcr) (Homo sapiens) (UniProt Q9UPY3); test: enzyme reaction in vitro; conditions: single turnover; in general pre-let7 cleaved 6-18 fold more rapidly than 37ab; 1.5 mM MgCl2; purified recombinant protein; label: 5'-32P

Row | Sequence | activity on this sequence [1] | activity on this sequence [2] | activity on this sequence [3] | activity on this sequence [4] | activity on this sequence [5] | binding result ([6]; label: 5'-32P on one strand) | activity on this sequence [7] | activity on this sequence [8] | binding result ([6]; label: 5'-32P)
1 | UGAGGUAGUAGGUUGUAUAGUUUGAAAGUUCACGAUU / UCGUGAACUUUCAAACUAUACAACCUACUACCUCAUU [37ab duplex RNA] | active | active | active | active | active | binds more weakly |  |  | 
2 | UGAGGUAGUAGGUUGUAUAGUUUUAGGGUCACACCCACCACUGGGAGAUAACUAUACAAUCUACUGUCUUACC [pre-hlet-7 hairpin RNA] |  |  |  |  |  |  | active | active | binds more weakly

For part of these data: The comparison behind a weaker result is the experiment's own reference, which may not be listed here.
